The other results are listed elsewhere or left out.
Compound: CC1Cc2ccccc2N1C(=O)C1CCCN(C1)C(=O)CCl (mixture of isomers) [TRIM25 ligand 11 (diastereomer mixture)]
Assay: probe-labelled cysteine peptide fold change vs DMSO (competition) (log2 fold change); higher = less target engagement (more negative = stronger competition)
Conditions: THP-1, incubation time: 4 h
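Note: competitive chemoproteomic profiling in live THP-1 cells with an iodoacetamide desthiobiotin (IA-DTB) probe, comparing probe-labelled peptide intensities in compound-treated cells against DMSO-treated controls.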

Sequences of proteins named here, by UniProt entry; tags and fusion partners are left off. A change or cut given only in a name is not applied to a line headed by its entry.
UniProt Q9NV70: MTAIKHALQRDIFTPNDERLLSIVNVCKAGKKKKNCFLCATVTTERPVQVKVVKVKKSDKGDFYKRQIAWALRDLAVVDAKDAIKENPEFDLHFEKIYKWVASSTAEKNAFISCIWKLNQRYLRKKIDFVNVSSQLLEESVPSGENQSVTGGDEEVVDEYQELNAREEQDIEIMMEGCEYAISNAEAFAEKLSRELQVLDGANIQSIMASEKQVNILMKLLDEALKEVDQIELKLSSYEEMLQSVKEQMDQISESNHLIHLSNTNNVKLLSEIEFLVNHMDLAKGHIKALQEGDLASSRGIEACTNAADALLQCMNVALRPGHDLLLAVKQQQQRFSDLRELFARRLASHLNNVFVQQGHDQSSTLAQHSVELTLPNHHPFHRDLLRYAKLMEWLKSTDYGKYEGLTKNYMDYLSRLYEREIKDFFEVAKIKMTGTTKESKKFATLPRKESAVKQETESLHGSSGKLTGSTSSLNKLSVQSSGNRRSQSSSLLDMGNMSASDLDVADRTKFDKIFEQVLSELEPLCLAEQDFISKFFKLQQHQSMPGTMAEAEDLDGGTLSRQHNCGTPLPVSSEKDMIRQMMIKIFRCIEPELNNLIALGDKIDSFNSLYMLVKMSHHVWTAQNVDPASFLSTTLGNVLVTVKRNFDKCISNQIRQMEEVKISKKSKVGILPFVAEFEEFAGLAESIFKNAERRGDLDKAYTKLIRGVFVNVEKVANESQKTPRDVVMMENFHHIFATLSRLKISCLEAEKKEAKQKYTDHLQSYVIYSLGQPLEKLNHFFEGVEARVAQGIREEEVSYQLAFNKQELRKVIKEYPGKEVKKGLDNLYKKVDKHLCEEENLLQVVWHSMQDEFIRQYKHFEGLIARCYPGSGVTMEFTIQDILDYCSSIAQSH
UniProt P23610: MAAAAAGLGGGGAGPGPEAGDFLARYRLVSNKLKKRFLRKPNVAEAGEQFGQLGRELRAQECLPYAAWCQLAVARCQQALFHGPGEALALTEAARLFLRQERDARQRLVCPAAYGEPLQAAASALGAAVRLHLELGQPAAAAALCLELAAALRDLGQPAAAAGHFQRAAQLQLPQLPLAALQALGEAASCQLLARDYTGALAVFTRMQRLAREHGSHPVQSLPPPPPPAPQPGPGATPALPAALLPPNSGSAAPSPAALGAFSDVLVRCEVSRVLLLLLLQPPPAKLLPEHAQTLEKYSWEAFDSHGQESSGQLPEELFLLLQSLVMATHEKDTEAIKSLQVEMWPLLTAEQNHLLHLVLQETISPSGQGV
UniProt Q9NRY5: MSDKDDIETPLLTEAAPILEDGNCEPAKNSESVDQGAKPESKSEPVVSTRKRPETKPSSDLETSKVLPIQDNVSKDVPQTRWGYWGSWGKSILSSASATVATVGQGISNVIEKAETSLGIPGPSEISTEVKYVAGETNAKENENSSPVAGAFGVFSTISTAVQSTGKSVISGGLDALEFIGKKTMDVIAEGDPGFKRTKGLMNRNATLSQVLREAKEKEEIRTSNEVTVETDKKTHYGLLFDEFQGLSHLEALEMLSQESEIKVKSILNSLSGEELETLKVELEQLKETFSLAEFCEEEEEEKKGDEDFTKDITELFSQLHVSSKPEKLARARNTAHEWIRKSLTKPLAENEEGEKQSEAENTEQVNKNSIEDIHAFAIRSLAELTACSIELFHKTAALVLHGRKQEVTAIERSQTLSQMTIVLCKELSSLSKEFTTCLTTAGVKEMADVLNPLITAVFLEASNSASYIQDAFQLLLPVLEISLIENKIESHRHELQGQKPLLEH
UniProt P16930: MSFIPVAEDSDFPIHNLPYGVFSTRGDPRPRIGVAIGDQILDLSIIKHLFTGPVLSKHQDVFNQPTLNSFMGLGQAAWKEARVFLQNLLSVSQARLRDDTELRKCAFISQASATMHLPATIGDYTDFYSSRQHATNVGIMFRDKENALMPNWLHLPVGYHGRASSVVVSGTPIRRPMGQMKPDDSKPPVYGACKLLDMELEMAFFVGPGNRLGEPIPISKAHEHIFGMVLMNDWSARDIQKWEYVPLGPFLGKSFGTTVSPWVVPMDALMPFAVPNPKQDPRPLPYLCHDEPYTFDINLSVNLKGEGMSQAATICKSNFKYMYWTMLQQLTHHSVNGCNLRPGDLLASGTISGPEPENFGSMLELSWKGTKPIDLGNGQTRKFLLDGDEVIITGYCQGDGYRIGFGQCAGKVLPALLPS
UniProt Q96HE7: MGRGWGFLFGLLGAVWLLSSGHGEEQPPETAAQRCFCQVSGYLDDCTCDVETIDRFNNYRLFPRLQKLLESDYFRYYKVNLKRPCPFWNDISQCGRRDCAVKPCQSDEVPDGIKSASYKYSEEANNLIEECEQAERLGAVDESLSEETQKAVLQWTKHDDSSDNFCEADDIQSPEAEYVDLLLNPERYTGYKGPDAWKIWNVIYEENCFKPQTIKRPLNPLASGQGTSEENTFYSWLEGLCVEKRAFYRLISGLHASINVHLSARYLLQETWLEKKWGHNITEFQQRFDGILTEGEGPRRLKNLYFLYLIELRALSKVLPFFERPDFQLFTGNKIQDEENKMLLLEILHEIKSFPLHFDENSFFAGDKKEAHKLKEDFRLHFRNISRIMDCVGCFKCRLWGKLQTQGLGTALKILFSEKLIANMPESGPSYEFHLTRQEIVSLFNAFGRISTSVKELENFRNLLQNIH
UniProt Q01469, whole entry, looked up: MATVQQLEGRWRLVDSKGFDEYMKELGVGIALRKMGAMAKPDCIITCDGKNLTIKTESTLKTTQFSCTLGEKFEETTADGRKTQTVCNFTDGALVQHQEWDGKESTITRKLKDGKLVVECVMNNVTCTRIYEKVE
UniProt Q9NZB2: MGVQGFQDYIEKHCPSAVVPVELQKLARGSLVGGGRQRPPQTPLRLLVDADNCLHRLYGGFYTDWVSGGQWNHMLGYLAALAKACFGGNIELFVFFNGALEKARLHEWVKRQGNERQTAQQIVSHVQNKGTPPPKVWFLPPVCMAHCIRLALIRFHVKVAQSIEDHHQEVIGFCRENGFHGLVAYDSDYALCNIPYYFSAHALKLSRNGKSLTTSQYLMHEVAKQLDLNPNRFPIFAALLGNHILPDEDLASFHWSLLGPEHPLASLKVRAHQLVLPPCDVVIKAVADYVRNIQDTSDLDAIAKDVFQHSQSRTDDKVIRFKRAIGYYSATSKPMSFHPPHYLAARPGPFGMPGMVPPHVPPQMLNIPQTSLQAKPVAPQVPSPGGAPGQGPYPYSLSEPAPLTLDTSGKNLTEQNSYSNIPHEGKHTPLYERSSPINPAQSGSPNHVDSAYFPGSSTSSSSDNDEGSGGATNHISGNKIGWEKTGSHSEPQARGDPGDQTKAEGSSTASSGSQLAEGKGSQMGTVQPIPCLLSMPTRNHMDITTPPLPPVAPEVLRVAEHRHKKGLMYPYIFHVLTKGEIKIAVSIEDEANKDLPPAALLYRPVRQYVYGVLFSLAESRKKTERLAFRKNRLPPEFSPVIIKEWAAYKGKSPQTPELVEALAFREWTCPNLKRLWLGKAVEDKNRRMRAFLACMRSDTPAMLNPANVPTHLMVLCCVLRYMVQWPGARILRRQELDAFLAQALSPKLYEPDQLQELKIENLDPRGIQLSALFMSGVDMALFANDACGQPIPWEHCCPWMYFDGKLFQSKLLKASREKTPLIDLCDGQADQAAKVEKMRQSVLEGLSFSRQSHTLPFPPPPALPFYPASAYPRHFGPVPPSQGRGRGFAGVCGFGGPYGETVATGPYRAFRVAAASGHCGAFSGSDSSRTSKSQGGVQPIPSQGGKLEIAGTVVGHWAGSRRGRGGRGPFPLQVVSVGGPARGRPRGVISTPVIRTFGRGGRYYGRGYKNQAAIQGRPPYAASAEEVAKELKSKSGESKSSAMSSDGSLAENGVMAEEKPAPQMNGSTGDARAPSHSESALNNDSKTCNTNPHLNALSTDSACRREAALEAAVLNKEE
UniProt Q96CS3: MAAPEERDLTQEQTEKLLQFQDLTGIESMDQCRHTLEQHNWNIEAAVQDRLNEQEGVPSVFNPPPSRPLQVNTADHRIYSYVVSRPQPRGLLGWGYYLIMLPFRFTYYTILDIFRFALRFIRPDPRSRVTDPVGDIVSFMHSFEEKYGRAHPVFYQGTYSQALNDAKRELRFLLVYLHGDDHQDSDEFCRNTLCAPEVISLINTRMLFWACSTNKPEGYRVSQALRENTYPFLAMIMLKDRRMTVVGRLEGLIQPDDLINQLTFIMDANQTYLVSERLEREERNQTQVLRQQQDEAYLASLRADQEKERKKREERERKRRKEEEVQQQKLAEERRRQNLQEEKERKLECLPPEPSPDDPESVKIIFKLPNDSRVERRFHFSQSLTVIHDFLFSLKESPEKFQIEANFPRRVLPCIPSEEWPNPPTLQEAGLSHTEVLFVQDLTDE
UniProt P00488: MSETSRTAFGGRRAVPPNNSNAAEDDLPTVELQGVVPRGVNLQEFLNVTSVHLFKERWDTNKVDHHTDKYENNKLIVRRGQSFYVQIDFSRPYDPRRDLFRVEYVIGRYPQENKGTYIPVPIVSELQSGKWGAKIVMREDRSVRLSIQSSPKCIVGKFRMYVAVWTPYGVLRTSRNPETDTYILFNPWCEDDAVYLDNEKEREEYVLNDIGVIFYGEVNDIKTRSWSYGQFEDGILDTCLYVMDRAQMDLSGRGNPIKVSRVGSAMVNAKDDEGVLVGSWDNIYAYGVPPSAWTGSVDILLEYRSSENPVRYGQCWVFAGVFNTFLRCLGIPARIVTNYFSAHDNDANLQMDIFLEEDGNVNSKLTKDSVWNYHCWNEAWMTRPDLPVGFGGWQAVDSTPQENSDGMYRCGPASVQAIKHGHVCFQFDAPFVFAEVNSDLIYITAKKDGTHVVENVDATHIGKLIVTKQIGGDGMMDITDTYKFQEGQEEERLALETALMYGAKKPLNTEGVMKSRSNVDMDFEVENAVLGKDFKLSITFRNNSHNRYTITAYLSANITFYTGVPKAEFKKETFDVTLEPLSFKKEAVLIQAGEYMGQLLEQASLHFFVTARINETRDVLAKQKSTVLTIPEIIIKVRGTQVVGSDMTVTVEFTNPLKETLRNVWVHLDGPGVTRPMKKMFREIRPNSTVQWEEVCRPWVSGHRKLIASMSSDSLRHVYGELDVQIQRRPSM
UniProt Q9BS26: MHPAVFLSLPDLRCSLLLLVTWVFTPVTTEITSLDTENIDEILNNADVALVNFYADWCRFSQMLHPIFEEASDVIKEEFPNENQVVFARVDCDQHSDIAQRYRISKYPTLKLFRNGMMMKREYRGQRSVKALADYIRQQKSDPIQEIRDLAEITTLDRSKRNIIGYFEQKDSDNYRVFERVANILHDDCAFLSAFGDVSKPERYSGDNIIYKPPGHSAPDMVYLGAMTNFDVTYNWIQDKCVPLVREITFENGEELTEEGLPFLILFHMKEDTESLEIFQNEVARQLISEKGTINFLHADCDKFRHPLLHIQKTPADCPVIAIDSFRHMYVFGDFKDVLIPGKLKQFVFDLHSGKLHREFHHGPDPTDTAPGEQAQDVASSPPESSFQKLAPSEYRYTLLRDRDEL
UniProt Q96EK7: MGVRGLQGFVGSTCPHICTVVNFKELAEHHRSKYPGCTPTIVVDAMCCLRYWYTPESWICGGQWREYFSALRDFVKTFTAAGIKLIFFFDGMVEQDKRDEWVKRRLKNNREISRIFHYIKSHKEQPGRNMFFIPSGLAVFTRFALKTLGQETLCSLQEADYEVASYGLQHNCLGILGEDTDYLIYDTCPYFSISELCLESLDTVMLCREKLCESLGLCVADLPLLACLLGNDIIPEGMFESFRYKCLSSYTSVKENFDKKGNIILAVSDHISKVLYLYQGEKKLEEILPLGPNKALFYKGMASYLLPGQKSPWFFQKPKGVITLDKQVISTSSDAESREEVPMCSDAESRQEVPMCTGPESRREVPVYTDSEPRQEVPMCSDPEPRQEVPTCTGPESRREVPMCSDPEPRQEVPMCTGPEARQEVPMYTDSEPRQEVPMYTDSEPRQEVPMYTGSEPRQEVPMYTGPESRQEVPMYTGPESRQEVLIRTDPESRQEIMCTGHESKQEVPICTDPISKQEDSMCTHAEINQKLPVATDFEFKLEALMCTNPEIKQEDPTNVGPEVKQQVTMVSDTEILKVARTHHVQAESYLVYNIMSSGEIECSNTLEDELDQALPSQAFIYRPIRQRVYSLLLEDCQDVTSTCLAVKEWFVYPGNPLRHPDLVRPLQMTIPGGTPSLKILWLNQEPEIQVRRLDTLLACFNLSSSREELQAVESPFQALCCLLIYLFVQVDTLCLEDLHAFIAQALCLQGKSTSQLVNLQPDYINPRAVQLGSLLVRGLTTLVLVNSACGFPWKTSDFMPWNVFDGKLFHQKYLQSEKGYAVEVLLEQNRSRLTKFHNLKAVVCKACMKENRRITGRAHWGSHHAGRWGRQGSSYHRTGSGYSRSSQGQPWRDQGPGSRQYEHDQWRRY

Target | probe-labelled cysteine peptide fold change (10 µM) | probe-labelled cysteine peptide fold change (50 µM)
EXOC1_Q9NV70_837_HLCEEENLLQVVWHSMQDEFIR (UniProt Q9NV70) | 0.233 | -0.0301
F8A3_P23610_110_LVCPAAYGEPLQAAASALGAAVR (UniProt P23610) | -0.204 | -0.154
ERMP1_Q7Z2K6_204+222_DGAQHAVLANCHFDSVANSPGASDDAVSCSVMLEVLR (UniProt Q7Z2K6) | 0.00966 | 0.0365
FAM114A2_Q9NRY5_425_SQTLSQMTIVLCK (UniProt Q9NRY5) | -0.0489 | -0.0411
FAH_P16930_315_GEGMSQAATICK (UniProt P16930) | 0.0916 | -0.0975
ERO1A_Q96HE7_85+94_RPCPFWNDISQCGR (UniProt Q96HE7) | 0.0778 | 0.165
FABP5_Q01469_67_TTQFSCTLGEKFEETTADGR (UniProt Q01469) | -0.384 | -0.0998
FAM120A_Q9NZB2_531_GSQMGTVQPIPCLLSMPTR (UniProt Q9NZB2) | -0.179 | -0.199
FAF2_Q96CS3_189_FLLVYLHGDDHQDSDEFCR (UniProt Q96CS3) | -0.0133 | -0.0259
EZH2_Q15910_503_LWAAHCR (UniProt Q15910) | -0.019 | -0.121
F13A1_P00488_410_CGPASVQAIK (UniProt P00488) | 0.168 | 0.101
F2_P00734_407_WVLTAAHCLLYPPWDK (UniProt P00734) | 0.631 | 0.154
ERP44_Q9BS26_92_VDCDQHSDIAQR (UniProt Q9BS26) | 0.0242 | 0.118
FAM120B_Q96EK7_380_QEVPMCSDPEPR (UniProt Q96EK7) | -0.00812 | -0.329

Another view of some results above:
Target,probe-labelled cysteine peptide fold change (10 µM),probe-labelled cysteine peptide fold change (50 µM)
ERO1A_Q96HE7_85+94_RPCPFWNDISQCGR (UniProt Q96HE7),0.0778,0.165
FABP5_Q01469_67_TTQFSCTLGEKFEETTADGR (UniProt Q01469),-0.384,-0.0998

Reference: the supplement of paper PMC12067093, “Discovery and optimisation of a covalent ligand for TRIM25 and its application to targeted protein ubiquitination” (Chemical Science, 2025)
